PubChem BioAssay AID686937 | Drosophila RNAi Screening Center – 2013
In all, the deposit lists about 23,000 reagents; this is an unselected part of those with a known target gene and a result. 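Reduced-secretion tags in replicate 1 do not always agree with the z-scores; no criterion for assigning the tags was given.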 A plus sign joins genes that one reagent is predicted to hit. Further read-outs or replicates are left out here. Not given: the amount of reagent.

- Assay: 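Knock-downs that reduce output of a secreted reporter enzyme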 (primary screen)
- System: Drosophila S2 cells expressing secreted horseradish peroxidase
- Reagents: long dsRNA against Drosophila genes
- Time to read-out: about 5.5 days (5 days dsRNA, then 12 h reporter induction)
- Challenge: reporter expression induced after 5 days of dsRNA, read 12 h later; inducer not stated
- Read-out: 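After 5 days of dsRNA and 12 h of reporter induction, medium peroxidase read by chemiluminescence and scored as per-plate z-score; higher values mean more reporter released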
- Direction: z-score: higher = more reporter secreted into medium

For CG3635 [DRSC03729], the values are z-score, replicate 1 = -0.04.
Knock-down of l(2)37Cb [DRSC02095] came out at: z-score, replicate 1 = -1.21.
CG5078 [DRSC11762] showed z-score, replicate 1 = 0.17.
Seipin [DRSC18654] showed z-score, replicate 1 = 0.12.
Depletion of Polr1H [DRSC14594] came out at: z-score, replicate 1 = 0.2.
With knock-down of CG31835 + CG42585 [DRSC01412], the record shows z-score, replicate 1 = -0.18.
With knock-down of Snr1 [DRSC12369], the screen gave z-score, replicate 1 = -0.98.
mu2 [DRSC08726] showed z-score, replicate 1 = 0.22.
Against mu2 [DRSC21534], the entry reads z-score, replicate 1 = -0.24.
Against CG4988 [DRSC02800], the entry reads z-score, replicate 1 = 0.27.
With knock-down of Ate1 [DRSC05925] the results were z-score, replicate 1 = -0.48.
For eIF3d2 [DRSC15651] the deposit lists z-score, replicate 1 = 0.27.

A run of entries of the results above, as a working copy:
CG31835 + CG42585 [DRSC01412]: z-score, replicate 1 = -0.18
Snr1 [DRSC12369]: z-score, replicate 1 = -0.98
mu2 [DRSC08726]: z-score, replicate 1 = 0.22

The results go on.
Knock-down of CG14505 [DRSC06476] gave: z-score, replicate 1 = 0.38.
Depletion of CG12912 [DRSC06227] resulted in: z-score, replicate 1 = -3.04.
After knock-down of CG7988 [DRSC16358], the screen gave z-score, replicate 1 = 0.2.
CG12194 [DRSC00345] scored z-score, replicate 1 = 0.38.
Silencing of Ugt36F1 [DRSC02601] resulted in: z-score, replicate 1 = 0.22.
For CG43146 (retired record) [DRSC09254], the values are z-score, replicate 1 = 0.5.
For chrb [DRSC11335], the values are z-score, replicate 1 = 0.28.
For CG4984 + CG4975 [DRSC06907], the values are z-score, replicate 1 = 0.24.
After knock-down of CG4984 + CG4975 [DRSC06908], the record shows z-score, replicate 1 = 0.43.
ND-B12 [DRSC04060] scored z-score, replicate 1 = 0.08.
upd3 [DRSC19636] showed z-score, replicate 1 = 0.19.
Depletion of upd3 [DRSC19968] gave: z-score, replicate 1 = 0.32.
With knock-down of upd3 [DRSC22169] the results were z-score, replicate 1 = -0.49.
Knock-down of CG10051 [DRSC05959] gave: z-score, replicate 1 = 0.4.
Silencing of Gr59a [DRSC21550] gave: z-score, replicate 1 = -0.12.
